# Screening data, single-dose tests

Protein sequences, listed by entry. Tags and fused reporters are not part of them. Residues count along the entry.
UniProt A4I591, 1-473: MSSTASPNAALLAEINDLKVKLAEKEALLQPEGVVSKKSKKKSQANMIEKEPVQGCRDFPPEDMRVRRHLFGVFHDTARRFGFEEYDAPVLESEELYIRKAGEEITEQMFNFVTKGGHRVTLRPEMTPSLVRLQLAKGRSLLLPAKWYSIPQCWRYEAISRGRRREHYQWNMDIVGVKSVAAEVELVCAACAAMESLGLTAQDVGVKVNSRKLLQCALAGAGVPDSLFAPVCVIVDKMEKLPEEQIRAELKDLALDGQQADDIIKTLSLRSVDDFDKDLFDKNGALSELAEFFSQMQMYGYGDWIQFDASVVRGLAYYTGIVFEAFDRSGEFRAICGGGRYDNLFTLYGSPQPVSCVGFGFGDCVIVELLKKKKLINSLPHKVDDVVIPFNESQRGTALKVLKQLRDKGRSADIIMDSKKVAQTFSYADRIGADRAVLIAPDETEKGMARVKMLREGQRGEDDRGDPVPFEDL

The filed quantity is “Percent Effect” (%).
The controls that fix the scale are not given in the record; negative values are as filed.
This is an unselected part of the compounds tested.

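Enzyme assay of histidyl-tRNA synthetase; the read-out is not stated. Target: Histidine-tRNA ligase, Leishmania infantum (UniProt A4I591). Concentration: 30 µM. Direction is inferred from retests: higher values go with stronger inhibition. The assay is labelled LdHisRS but filed under L. infantum. About 69,000 compounds were tested under these conditions; 0.6% (about 410) showed 50% or more at least once.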

| Compound | percent effect |
|---|---|
| `CC(=O)N1CCCC1c1nccnc1Nc1cccc(C)n1` (centres unmarked) | 3.65% |
| `Cc1cccc(C)c1CNC1(CCO)CCOCC1` | 14.29% |
| `c1ccc2oc(NC3CCCN(Cc4noc(C5CC5)n4)C3)nc2c1` (centres unmarked) | 13.46% |
| `CC(CCc1cccn1C)NC(=O)Nc1cccn(C)c1=O` (centres unmarked) | 38.39% |
| `OC1(CN2CCCC2)COCCN(c2noc(-c3ccccc3)n2)C1` (centres unmarked) | 18.25% |
| `CC(O)(CN1CCC(O)CC1)c1cccc(C(F)(F)F)c1` (centres unmarked) | 9.615% |
| `CCc1c(C(=O)N2CCN(c3ncccn3)CC2)cnn1C(C)(C)C` | 34.85% |
| `O=C(c1ccncn1)N1CCC[C@]2(C[C@@H](OCC3CC3)CO2)C1` | 22% |
| `CCCOC(=O)N1CCCC(c2nnc(CN3CCOCC3)n2C)C1` (centres unmarked) | 13.89% |
| `CCS(=O)(=O)NCCCn1ncc2c(C)cccc21` | 8.621% |
| `CCn1ncc2[nH]c(-c3cc(OC)c(OC)cc3OC)nc21` | -1.639% |
| `CC(C)NC(=O)c1ccc2c(c1)nc1n2CCN(Cc2ccccc2)C1` | 12.41% |
| `O=C(Cc1ccsc1)N1CCN(CCOc2ccccc2)CC1` | 20.59% |
| `CC(NC(=O)CCCOc1ccccc1Cl)c1ccncc1` (centres unmarked) | 3.846% |
| `N#CC1(NC(=O)c2ccc(-c3nc(C4CC4)n[nH]3)cc2)CCC1` | 12.2% |
| `CN1CCC(N(C)C(=O)CSc2ccc(F)c(F)c2)C1=O` (centres unmarked) | 21.92% |
| `CCN1CC[C@@]2(C(=O)N(C)C)CCN(S(=O)(=O)c3ccccc3)CC[C@@H]12` | 7.767% |
| `N#Cc1cc(F)ccc1NCc1ccc(Cn2cncn2)cc1` | 24.11% |
| `O=c1c2cnc(N3CCCC3)nc2ccn1-c1cccc(C(F)(F)F)c1` | 13.33% |
| `CCC(=O)N1CCC(c2ncc3c(n2)CCNC3)CC1` | 16% |
| `O=C(c1ccc2nncn2c1)N1CCCCC1Cn1cccn1` (centres unmarked) | 0% |
| `CCOCC1CC2(CCN(C(=O)c3cscn3)CC2)CO1` (centres unmarked) | 16.36% |
| `N#Cc1nccnc1N1CCC(Cc2ccccc2)C1` (centres unmarked) | 17.02% |
| `CN(Cc1ccccc1F)C(C(N)=O)c1ccccc1` (centres unmarked) | 19.75% |
| `CC(NC(=O)NCC1(c2ccc(F)cc2)CCCC1)c1nncn1C` (centres unmarked) | 4.464% |
| `Cc1ccc(CNC(=O)Nc2nnc(C)s2)cn1` | 37.88% |
| `CCc1nc(C2CCCN2Cc2cc(=O)n(C)c(=O)n2C)no1` (centres unmarked) | 13.79% |
| `Cn1nc(C2CN(C(=O)c3ccncc3)C2)c2nccnc21` | 11.46% |
| `Cc1ccccc1OCCCC(=O)NC(C)c1nnc2n1CCC2` (centres unmarked) | 11.4% |
| `O=S(=O)(c1cccs1)N1Cc2nc(CN3CCCCC3)oc2C1` | 7.921% |
| `Cc1ccc2nc(C)cc(C(=O)N3C[C@H]4CCC[C@@]4(CO)C3)c2c1` | 11.2% |
| `CCOCCn1nc(C)cc1C(=O)N1C[C@@H](C)[C@](O)(C2CC2)C1` | 18.4% |
| `c1csc(-c2noc(CC3CCCO3)n2)c1` (centres unmarked) | 12.68% |
| `CCS(=O)(=O)N1CCCC(c2ccnc(N(C)C)c2)C1` (centres unmarked) | 8.966% |
| `COCCCNC(=O)N1CCN(C(=O)c2nsc3ccc(C)cc23)CC1` | 15.79% |
| `Cc1cc(C)c(CNC(=O)NCc2ccncc2)c(=O)[nH]1` | 10.91% |
| `CN(CCc1cn[nH]c1)C(=O)C1CC(=O)N(Cc2cccnc2)C1` (centres unmarked) | 11.11% |
| `CCNC(=O)[C@@H]1C[C@@H](NC(=O)c2ccc(C#N)cc2)CN1CCCSC` | 11.7% |
| `CCOCCC(=O)NCc1ccnc(NC2CC2)c1` | 2.632% |
| `Cc1nc(CN(C)C)cc(N2CCCC(COc3ccc(F)cc3)C2)n1` (centres unmarked) | 14.46% |
| `Cc1[nH]nc(CCC(=O)NCC2CCN(C3CCCCC3)C2)c1C` (centres unmarked) | 14.29% |
| `CN(C)C(=O)N1CCC2(CC(=O)N(c3cccc(C#N)c3)C2)C1` (centres unmarked) | 16.36% |
| `CC(NC(=O)c1cccs1)C(=O)NCc1ccccc1CN1CCCC1` (centres unmarked) | -24.66% |
| `O=C(CN(CC1CCC1)CC(F)(F)F)N1CCOCC1` | 13.92% |
| `O=C1CO[C@@H]2CN(Cc3cccnc3)C[C@H]2N1Cc1ccncc1` | 7.273% |
| `CC(C)CC(=O)N1CCCCC(NC(=O)CCc2cccnc2)C1` (centres unmarked) | 11.48% |
| `Cc1ncc(CN2CCc3c(nc(-c4ccccn4)[nH]c3=O)C2)n1C` | 5.208% |
| `CC(=O)NCC(=O)Nc1cc(C)n(-c2ccc(Cl)cc2Cl)n1` | 6.667% |
| `Fc1cccc(N2C[C@H]3CCN(c4cccnc4)C[C@H]3C2)c1` | 61.54% |
| `OC1(CN2CCCC2)COCCN(c2nnc(-c3ccccc3)s2)C1` (centres unmarked) | 23.02% |
| `N#Cc1cccc(Cl)c1NCCc1n[nH]c(=O)[nH]1` | 2.5% |
| `CC(C)N1CCC2(CCCN(c3nccc(C(F)(F)F)n3)C2)CC1` | 19.42% |
| `O=C(C1CCCCO1)N1CCc2ncnc(NCCO)c2CC1` (centres unmarked) | 17.74% |
| `O=C(Nc1ccccc1)C1CCCN(c2cc(-n3cncn3)ncn2)C1` (centres unmarked) | 3.478% |
| `COCC1CN(CC2CC2)Cc2nn(C)cc21` (centres unmarked) | -1.961% |
| `CN(CCOc1ccc(F)cc1)S(=O)(=O)N1CCOCC1` | 22.37% |
| `N#CCCn1cnc2c(Br)cc(Br)cc2c1=O` | 18.09% |
| `C[C@@H]1CN(S(=O)(=O)N2CCCC2)CC[C@@]1(O)C1CCOCC1` | -1.961% |
| `CC(C)(C)CCCC(=O)NS(=O)(=O)CC1CC1` | 0% |
| `Cc1ccc(N2CCC3(CC2)CCN(C2CCOC2)CC3)nn1` (centres unmarked) | 26.5% |
| `CC(=O)N1CCC(Cc2ccc(-c3ccnn3C)nc2)CC1` | 11.19% |
| `O=c1ccc(-n2cccn2)nn1CCNS(=O)(=O)c1ccc(F)c(Cl)c1` | 13.91% |
| `O=S(=O)(NCCC(O)c1cccs1)c1ccccc1Cl` (centres unmarked) | 15.65% |
| `CC(O)(CNC(=O)NCCc1ccc2c(c1)CCO2)c1ccccc1` (centres unmarked) | 9.735% |
| `COc1ccc(S(=O)(=O)N[C@H]2CN(C(C)=O)C[C@@H]2C(C)C)cc1F` | 3.448% |
| `CCS(=O)(=O)NCC1CCN(c2cnccn2)CC1` | 6.849% |

5 of the entries, repeated:

| Compound | percent effect |
|---|---|
| `Cc1ncc(CN2CCc3c(nc(-c4ccccn4)[nH]c3=O)C2)n1C` | 5.208% |
| `Cc1cccc(C)c1CNC1(CCO)CCOCC1` | 14.29% |
| `COCCCNC(=O)N1CCN(C(=O)c2nsc3ccc(C)cc23)CC1` | 15.79% |
| `CC(=O)NCC(=O)Nc1cc(C)n(-c2ccc(Cl)cc2Cl)n1` | 6.667% |
| `CC(C)CC(=O)N1CCCCC(NC(=O)CCc2cccnc2)C1` (centres unmarked) | 11.48% |

From ChEMBL document CHEMBL3988442, “University of Dundee, Small-Polar-MMV Screening Library” (2021).